Results: PubChem BioAssay AID2417 (National Center for Advancing Translational Sciences (NCATS), 2010)
The campaign covered roughly 140,000 compounds. About 4,300 (3.1%) were called active. Inconclusive means that the source gave no clear call. Such entries were picked first, then a sample of the others.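 The calls were made as follows: active = readout at or below -70, meaning at least 70% loss of cells showing the perinucleolar compartment, a nuclear body marking cancer cells; inconclusive = readout between -30 and a set limit; inactive = the rest.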

assay: High Content Assay for Compounds that inhibit the Assembly of the Perinucleolar Compartment; details: PC3M PTB-GFP, PNC prevalence imaging, 16 h; at 10 µM; active compounds read low;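 also: plate controls were DMSO wells for no effect and camptothecin positive control wells for full effect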
In short: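 PC3M cells stably expressing PTB-GFP, 750–1000 cells/well, treated 16 h at 37 °C with compound (23 nl of library stock), in duplicate. After paraformaldehyde fixation and Hoechst stain, imaged at 20x; PNC prevalence scored by image analysis.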

Row | SMILES | activity change (PNC), negative = inhibition
1 | O=C(O)Cn1cccc1C(=O)c1ccccc1 | inconclusive: -64.4%
2 | CCCSc1oc(-c2ccco2)nc1S(=O)(=O)c1ccccc1 | inconclusive: -52.7%
3 | CCOC(=O)C1CCN(Cc2coc3ccc(Cl)cc3c2=O)CC1 | active: -80.9%
4 | CCOC(=O)C1=C(CS(=O)(=O)c2ccc(F)c(C)c2)NC(=O)NC1c1ccc(O)c(O)c1 (stereo not given) | inconclusive: -38.2%
5 | CC#CCN(CC#CC)S(=O)(=O)c1ccc(S(=O)(=O)N2CCOCC2)cc1 | active: -105%
6 | CCOC(=O)c1c(C)[nH]c(C(=O)CN2C(=O)NC(CC)(c3ccccc3)C2=O)c1C (stereo not given) | inconclusive: -53.9%
7 | COc1ccc(-c2csc3ncnc(Oc4ccc5c(C)cc(=O)oc5c4)c23)cc1 | inconclusive: -30.4%
8 | O=C(c1c(F)cccc1F)N1CCN(c2cccc(C(F)(F)F)c2)CC1 | inconclusive: -53.6%
9 | O=c1c2ccccc2nc(SCc2cccc(F)c2)n1-c1cccc(S(=O)(=O)N2CCCC2)c1 | inactive: -26.5%
10 | O=C(/C=C/c1ccco1)NC(=S)Nc1ccc(N2CCCC2)cc1 | inconclusive: -46.8%
11 | Cc1ccccc1CN1CCN(CC(=O)NCc2ccccc2)C1=O | inconclusive: -55.5%
12 | COc1ccc(CCN2CC(C#N)=C3c4cc(OC)c(OC)cc4CCN3C2)cc1OC | inactive: -6.85%
13 | COc1ccccc1NC(=O)Cn1c(=O)oc2ccccc21 | inconclusive: -71.2%
14 | COc1cc(C(=O)N2CCN(c3ccc(C)cc3C)CC2)cc(OC)c1OC | active: -119%
15 | CCOC(=O)c1c(/N=C/C2=C(O)CC(C)(C)CC2=O)sc(C)c1C | inactive: -6.14%
16 | COc1ccc(C)cc1N(C(=O)c1ccc(F)cc1)c1nc2ccccc2s1 | inconclusive: -40.4%
17 | CC(c1ccc(C(C)(C)C)cc1)S(=O)CC(O)CO (stereo not given) | active: -112%
18 | O=c1c2ccccc2n2c(-c3ccc(F)cc3)nnc2n1Cc1ccccc1 | active: -102%
19 | COc1ccc(N(Cc2cc3cc(OC)ccc3[nH]c2=O)C(=O)C2CCCO2)cc1 (stereo not given) | inconclusive: -54.8%
20 | C=CCN(C1CCCCC1)S(=O)(=O)c1ccc2c(c1)oc(=O)n2C | inconclusive: -45.8%
21 | CCOC(=O)N1CCC(N2Cc3cccc(C(=O)NCC4CCN(CC(C)C)C4)c3C2=O)CC1 (stereo not given) | inconclusive: -48.7%
22 | COc1cccc(NC(=O)c2nc3nc(C)cc(C(F)F)n3n2)c1 | inconclusive: -42.7%
23 | CSc1cc(/C=N/O)c(SC)s1 | inactive: -5.27%

Row | SMILES | activity change (PNC), negative = inhibition
24 | CCC1CCCCN1Cc1ccc(OC)c(C)c1C (stereo not given) | inactive: -21.7%
25 | CCN(CC)c1ccc(C2N(C(=O)N3CCOCC3)CCN2S(=O)(=O)c2ccc(C)cc2)cc1 (stereo not given) | inconclusive: -31.2%
26 | COC(=O)c1ccc(NC(=O)Nc2ccc(F)c(Cl)c2)cc1 | inactive: 7.04%
27 | Cc1csc2nc3ccccc3c(=O)n12 | inconclusive: -41%
28 | Cc1ccc(-n2c(C)cc(/C=N/NC(=O)Cn3c4ccccc4c(=O)c4ccccc43)c2C)cc1 | inactive: 0.443%
29 | CCOC(=O)N1CCN(c2c(NCCCOC(C)C)c(=O)c2=O)CC1 | inconclusive: -31.5%
30 | COc1ccc(-c2ccc(Nc3ccc(C(=O)N4CCOCC4)cc3)nn2)cc1OC | inactive: -2.15%
31 | CN(C)C(=O)N1CCCC(C(=O)NCc2cccs2)C1 (stereo not given) | inconclusive: -57.9%
32 | Cc1ccc(S(=O)(=O)N2CCN(C(=O)N(c3ccccc3)c3ccccc3)CC2)cc1 | inconclusive: -56.3%
33 | c1ccc(Nc2cccc(Nc3ccccc3)n2)cc1 | inactive: -0.0379%
34 | CCc1nnc(NC2=NCCC2)s1 | inactive: -3.16%
35 | Oc1ccc(/C=N/Nc2ncc(Br)cn2)c(O)c1 | inactive: 47.1%
36 | O=C(COc1ccccc1Cl)Nc1nc(-c2cccs2)cs1 | inconclusive: -30.7%
37 | CC(=Nc1ccccc1)C1=C(O)CSC1=O | inactive: -12.3%
38 | CCOC(=O)c1c(C)cc(=O)oc1C | inconclusive: -68.3%
39 | CCc1nc(SCc2cccnc2)[nH]c(=O)c1C | inconclusive: -38.1%
40 | C/C(N)=C(/C#N)C(=O)COC(=O)C(NS(=O)(=O)c1ccc(Cl)cc1)C(C)O (stereo not given) | inconclusive: -71.2%
41 | CNCCc1ccccn1 | inconclusive: -30.4%
42 | CCC(=O)Nc1c(C)cc(C)cc1Cl | inconclusive: -34.6%
43 | COc1ccc(-c2cc(C(F)(F)F)nc(N3CCN(C)CC3)n2)cc1 | inconclusive: -42.2%
44 | Clc1ccc(OCc2nnc3n2N=C(c2ccc4c(c2)OCCO4)CS3)c(Cl)c1 | inconclusive: -46.5%
45 | C/C(=N\NC(=O)c1ccc(NS(=O)(=O)c2cccs2)cc1)c1ccc(Cl)cc1 | active: -89.3%

Random excerpt: 2 compounds from above
Row | SMILES | activity change (PNC), negative = inhibition
34 | CCc1nnc(NC2=NCCC2)s1 | inactive: -3.16%
24 | CCC1CCCCN1Cc1ccc(OC)c(C)c1C (stereo not given) | inactive: -21.7%
